Some of these results come from one statement about several compounds together.
System: suspension HEK293 cells
Assay: rAAV production in 3-liter bioreactors, suspension HEK293 cells, Payload C
Assay type: cell-based
Settings: colcemid 0.4 μM or colchicine 5 μM (2×) added 0.5 hours post-transfection, seven days, FIG. 5

| Compound | fold change in rAAV particle titer [fold] |
| --- | --- |
| CN[C@H]1CCc2cc(OC)c(OC)c(OC)c2-c2ccc(OC)c(=O)cc21 [colcemid, N-deacetyl-N-methylcolchicine] | ≥ 3 |
| COc1cc2c(c(OC)c1OC)-c1ccc(OC)c(=O)cc1[C@@H](NC(C)=O)CC2 [colchicine, (S)—N-(5,6,7,9-tetrahydro-1,2,3,10-tetramethoxy-9-oxobenzo[a]heptalen-7-yl)acetamide] | ≥ 3 |
